No constants are given. Whether binding was seen depends on the method and setting. In cells and extracts the contact can be indirect. A yes stands for co-enrichment or nearness to the bait. Other partners may have been found. Sequences can lack the tags named with a protein.
Target: HDAC1 (endogenous or tagged not stated; immunoprecipitates for mass spectrometry and co-IP with the PFK isoforms) (human) (UniProt Q13547)
Assay: affinity purification with mass spectrometry; mass spectrometry of HDAC1 immunoprecipitates

Amino acid sequences for entries named in this document (tags omitted).
UniProt Q13547: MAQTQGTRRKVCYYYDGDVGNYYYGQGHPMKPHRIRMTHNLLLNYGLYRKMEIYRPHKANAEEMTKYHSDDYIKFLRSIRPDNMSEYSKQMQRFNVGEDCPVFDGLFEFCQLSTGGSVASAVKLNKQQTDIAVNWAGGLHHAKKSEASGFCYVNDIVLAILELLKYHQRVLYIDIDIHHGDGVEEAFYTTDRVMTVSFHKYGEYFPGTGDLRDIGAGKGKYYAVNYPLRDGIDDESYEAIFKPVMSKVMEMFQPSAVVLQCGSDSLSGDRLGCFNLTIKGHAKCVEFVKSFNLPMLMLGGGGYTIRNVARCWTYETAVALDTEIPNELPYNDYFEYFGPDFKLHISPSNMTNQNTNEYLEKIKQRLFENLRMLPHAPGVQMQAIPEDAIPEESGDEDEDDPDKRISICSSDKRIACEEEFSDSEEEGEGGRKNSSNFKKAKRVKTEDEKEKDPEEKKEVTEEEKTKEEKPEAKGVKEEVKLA

binding: binds
B1: PFKL (endogenous or tagged not stated; immunoprecipitates for mass spectrometry, co-IP of the PFK isoforms, purified PFKL added to HDAC1) (enzyme, UniProt P17858 1-780)
chain: MAAVDLEKLRASGAGKAIGVLTSGGDAQGMNAAVRAVTRMGIYVGAKVFLIYEGYEGLVEGGENIKQANWLSVSNIIQLGGTIIGSARCKAFTTREGRRAAAYNLVQHGITNLCVIGGDGSLTGANIFRSEWGSLLEELVAEGKISETTARTYSHLNIAGLVGSIDNDFCGTDMTIGTDSALHRIMEVIDAITTTAQSHQRTFVLEVMGRHCGYLALVSALASGADWLFIPEAPPEDGWENFMCERLGETRSRGSRLNIIIIAEGAIDRNGKPISSSYVKDLVVQRLGFDTRVTVLGHVQRGGTPSAFDRILSSKMGMEAVMALLEATPDTPACVVTLSGNQSVRLPLMECVQMTKEVQKAMDDKRFDEATQLRGGSFENNWNIYKLLAHQKPPKEKSNFSLAILNVGAPAAGMNAAVRSAVRTGISHGHTVYVVHDGFEGLAKGQVQEVGWHDVAGWLGRGGSMLGTKRTLPKGQLESIVENIRIYGIHALLVVGGFEAYEGVLQLVEARGRYEELCIVMCVIPATISNNVPGTDFSLGSDTAVNAAMESCDRIKQSASGTKRRVFIVETMGGYCGYLATVTGIAVGADAAYVFEDPFNIHDLKVNVEHMTEKMKTDIQRGLVLRNEKCHDYYTTEFLYNLYSSEGKGVFDCRTNVLGHLQQGGAPTPFDRNYGTKLGVKAMLWLSEKLREVYRKGRVFANAPDSACVIGLKKKAVAFSPVTELKKDTDFEHRMPREQWWLSLRLMLKMLAQYRISMAAYVSGELEHVTRRTLSMDKGF
